Data reported in the supplement of paper PMC8288183.
Some of the results follow. Single values are uncertain, as repeats are few or missing.

Target: T1, NSUN6 (UniProt Q8TEA1)
T1 sequence: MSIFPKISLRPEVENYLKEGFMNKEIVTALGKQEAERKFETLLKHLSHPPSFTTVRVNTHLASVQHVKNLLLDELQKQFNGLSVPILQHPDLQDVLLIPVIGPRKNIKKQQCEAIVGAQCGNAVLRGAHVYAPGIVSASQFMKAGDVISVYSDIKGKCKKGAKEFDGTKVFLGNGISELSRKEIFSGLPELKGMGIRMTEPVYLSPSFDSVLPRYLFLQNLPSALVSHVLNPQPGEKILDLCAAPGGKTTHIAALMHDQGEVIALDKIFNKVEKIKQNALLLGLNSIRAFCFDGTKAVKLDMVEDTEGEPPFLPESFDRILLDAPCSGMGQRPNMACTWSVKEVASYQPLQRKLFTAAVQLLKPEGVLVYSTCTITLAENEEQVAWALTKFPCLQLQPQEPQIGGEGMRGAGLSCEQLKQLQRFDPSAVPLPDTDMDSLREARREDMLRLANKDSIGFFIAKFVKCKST
Test: m5C methylation level at the target C (C/(C+U) bisulfite reads) (fraction); higher = more methylation by NSUN6; extreme values may be limits of the assay
Settings: HEK293T (wild-type)
Procedure: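 High-throughput mutagenesis reporter. About 140 bp oligo-pool variants of four natural Type II m5C substrates (substrate #1 chr15:91425541; #2 RAB15 3'UTR chr14:65413377; #3 SULT2A1 5'UTR chr19:48389569; #4 NAAA CDS chr4:76857361) were cloned as 3'UTR elements of psiCHECK-2 luciferase and transfected into wild-type HEK293T cells. Total RNA was taken 48 h later and m5C level was measured by targeted bisulfite sequencing as C/(C+U) reads at the m5C site (one library).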

[1] = parent substrate: substrate #1 (main figure)

Sequence | m5C methylation level at the target C [1] | m5C methylation level at the target C (parent substrate: substrate #2) | m5C methylation level at the target C (parent substrate: substrate #3) | m5C methylation level at the target C (parent substrate: substrate #4)
GCUAAC | 0.00212 | 0.00107 | 0.00191 | 0.00773
ACGUCU | 0.00138 | 0.00154 | 0.000975 | 0.000808
CCCUCG | 0 | 0.00159 | 0.0007 | 0
ACAACG | 0 | 0.000933 | 0.00157 | 0.00315
ACUGAG | 0.00118 | 0 | 0 | 0
ACAACA | 0.00226 | 0 | 0 | 0.00261
CCAUAU | 0.00856 | 0 | 0.00205 | 0.000529
CCGCAC | 0.00498 | 0.00189 | 0.00213 | 0.000555
GCCGAU | 0.00166 | 0 | 0.0012 | 0.006
CCCUUC | 0.000954 | 0 | 0.00115 | 0
ACGAGA | 0.00297 | 0.00415 | 0.003 | 0.00459
UCUUCU | 0 | 0 | 0 | 0
UCUUCA | 0.0117 | 0 | 0.00318 | 0
CCGUGC | 0.0126 | 0 | 0.000593 | 0.000603
ACAAGC | 0 | 0.0101 | 0 | 0
GCUUCA | 0 | 0 | 0 | 0.0042
CCCCCA | 0.0198 | 0.015 | 0.00213 | 0.00258
GCUGCC | 0 | 0.0017 | 0.000505 | 0.00387
UCACUG | 0 | 0.00904 | 0 | 0.0123

Part of the list above, as tab-separated lines.
Sequence	m5C methylation level at the target C [1]	m5C methylation level at the target C (parent substrate: substrate #2)	m5C methylation level at the target C (parent substrate: substrate #3)	m5C methylation level at the target C (parent substrate: substrate #4)
GCUAAC	0.00212	0.00107	0.00191	0.00773
ACGUCU	0.00138	0.00154	0.000975	0.000808
CCAUAU	0.00856	0	0.00205	0.000529
CCGCAC	0.00498	0.00189	0.00213	0.000555
CCCUUC	0.000954	0	0.00115	0
UCUUCU	0	0	0	0
CCGUGC	0.0126	0	0.000593	0.000603
GCUGCC	0	0.0017	0.000505	0.00387

(listing goes on)

Sequence | m5C methylation level at the target C [1] | m5C methylation level at the target C (parent substrate: substrate #2) | m5C methylation level at the target C (parent substrate: substrate #3) | m5C methylation level at the target C (parent substrate: substrate #4)
UCAGUG | 0 | 0.00144 | 0 | 0
GCUGGG | 0 | 0.00731 | 0.00128 | 0
UCGGAC | 0.00179 | 0 | 0 | 0
UCAGGA | 0.00141 | 0 | 0.000508 | 0
UCGAGG | 0.00415 | 0.00711 | 0.00216 | 0.00159
UCCUGG | 0 | 0.00066 | 0.00134 | 0
GCACAG | 0.00326 | 0.00419 | 0.00129 | 0.00225
GCUGUU | 0.000558 | 0 | 0.00076 | 0.000635
ACUUAA | 0.00144 | 0.00081 | 0.00134 | 0.00156
UCGGGU | 0.000922 | 0.00308 | 0.000563 | 0
GCCGUC | 0.00382 | 0.00279 | 0 | 0
UCACAA | 0.000723 | 0.0126 | 0.000528 | 0.00324
ACCUUA | 0.00161 | 0 | 0.000886 | 0.00117
GCCCAC | 0 | 0.00306 | 0.00139 | 0.00262
GCUUAG | 0.00198 | 0 | 0.00132 | 0.00196
ACGGAG | 0.000708 | 0.00125 | 0.00105 | 0
UCAUGC | 0.000951 | 0 | 0 | 0.00142
ACGGAC | 0.000607 | 0 | 0 | 0.000934
